{"source": "patent US8410178B2", "about": "“CIS 3,4-dihydroxy-2-(3-methylbutanoyl)-5-(3-methylbutyl)-4-(4-methylpentanoyl)cyclopent-2-en-1-derivatives, substantially enantiomerically pure compositions and methods” (KinDex Therapeutics, LLC, priority 2010, dated 2013)", "key": {"[1]": {"system": "Zucker diabetic fatty (ZDF) rats", "experiment": "Glucose and triglyceride levels in a rat diabetes model", "assay_type": "in vivo", "conditions": "30 mg/kg orally twice a day", "experimental": "64 six-week-old male Zucker diabetic fatty (ZDF) rats with glucose levels of 175-300 mg/dL were randomized and divided into eight dosing groups: 1) vehicle only (0.5% methylcellulose (w/v), 0.2% Tween 80 (w/v); negative control), 2) (+)-KDT501 25 mg/kg, 3) (+)-KDT501 50 mg/kg, 4) (+)-KDT501 100 mg/kg, 5) (+)-KDT501 200 mg/kg, 6) metformin 200 mg/kg (positive control), 7) metformin 200 mg/kg and (+)-KDT501 100 mg/kg, and 8) pioglitazone 30 mg/kg (positive control). Drugs were administered orally twice a day for 33 days.\nAnimals were weighed at randomization and once per week thereafter, with administration dosages calculated based on the most recent body weight measurements. Blood samples were collected by tail bleed three days prior to randomization, at randomization, and at days 15 and 29 after the start of treatment. These blood samples were used to perform whole blood glucose evaluations using a glucometer, as well as to measure blood triglyceride levels. Body composition was tested by qNMR on days 2 and 29 after the start of treatment. An oral glucose tolerance test (OGTT) was performed on days 31 and 32 after the start of treatment. Rats underwent an overnight fast prior to OGTT, and tail bleeds for glucose and insulin were performed pre-glucose bolus and at 15, 30, 60, 90, and 120 minutes post-glucose bolus. The glucose bolus was 2 g dextrose/kg of body weight. […]"}, "[2]": {"system": "diet induced obese (DIO) mice", "experiment": "Glucose, insulin, HbA1C and fat mass in high fat diet-induced obesity (DIO) mouse model", "assay_type": "in vivo", "conditions": "30 mg/kg orally twice a day", "experimental": "14 week-old male mice were randomized and divided into seven dosing groups with 16 animals in each group: 1) vehicle only (0.5% methylcellulose (w/v), 0.2% Tween 80 (w/v); negative control), 2) (+)-KDT501 25 mg/kg, 3) (+)-KDT501 50 mg/kg, 4) (+)-KDT501 100 mg/kg, 5) (+)-KDT501 200 mg/kg, 6) metformin 200 mg/kg (positive control), and 7) pioglitazone 30 mg/kg (positive control). Drugs were administered orally twice a day for 30 days.\nAnimals were weighed at randomization and once per week thereafter, with administration dosages calculated based on the most recent body weight measurements. The mice were maintained on a high fat diet (40% Kcal) (TD95217; prepared by Covance Laboratories, Greenfield, Ind.). Body composition was tested by qNMR on days −5 and 28 after the start of treatment. […]. An oral glucose tolerance test (OGTT) was performed on day 30 after the start of treatment. Mice underwent an overnight fast prior to OGTT, and tail bleeds for glucose and insulin were performed pre-glucose bolus and at 15, 30, 60, 90, and 120 minutes post-glucose bolus. The glucose bolus was 2 g dextrose/kg of body weight. OGTT results were evaluated by area under the curve (AUC) measurements and Dunnett's test."}}, "note": "At least one structure is not confirmed: it was looked up by name or label, or the drawing left a doubt."}
{"molecule": "CCc1ccc(CCOc2ccc(CC3SC(=O)NC3=O)cc2)nc1", "note": "(centres unmarked) [pioglitazone]", "values": [{"measurement": "triglyceride levels", "setting": "[1]", "result": "significant decrease"}, {"measurement": "whole blood glucose levels", "setting": "[1]", "result": "significant decrease"}, {"measurement": "blood glucose levels from the OGTT", "setting": "[2]; day 30", "result": "significant decrease"}, {"measurement": "insulin levels from the OGTT", "setting": "[2]; day 30", "result": "significant decrease"}, {"measurement": "fat mass", "setting": "[2]; qNMR day 28", "result": "no difference"}]}
